Reference: PubChem BioAssay (NCATS)
Inconclusive results, whose numbers are uncertain, are shown with a selection of clear calls. Where the call is inconclusive, the potency comes from a doubtful curve fit. Calls of active or inactive are those of the source. Calls come from the whole dose curve; as a rule, active = well fitted cell-killing curve with a large enough effect; inconclusive = small, poorly fitted or top-dose-only effect, or effect the other way; inactive = no such curve, though single readings can be large or run the other way.

Assay: Quantitative High-Throughput drug screen in 47 multiple myeloma cell lines against the NCATS MIPE library collection: Karpas25_ECACC cell viability assay (AID 1918968; note: nearly all actives have a fitted effect of over 35% in size)
Details: Karpas25 myeloma viability, CellTiter-Glo ATP, 48 h; series mostly up to 45.8 µM; viability (% of control): at the top concentration
Text: PI: Beverly A. Mock Ph.D.
Laboratory of Cancer Biology and Genetics,
Center for Cancer Research, National Cancer Institute,
National Institute of Health, Bethesda, Maryland
Drug resistance and disease progression are common in multiple myeloma (MM) patients, underscoring the need for new therapeutic combinations. […] We hypothesized that effective combinations would reduce MYC expression and enhance p16 activity. […] These preclinical data identify potentially useful drug combinations for evaluation in drug-resistant MM and reveal potential mechanisms of combined drug sensitivity.
Described herein is the primary MIPE qHTS used to cherrypick compounds. Validated compounds were then further tested for potential synergistic activiy.
[1] Peat TJ, Gaikwad SM, Dubois W, Gyabaah-Kessie N, Zhang S, Gorjifard S, Phyo Z, Andres M, Hughitt VK, Simpson RM, Miller MA, Girvin AT, Taylor A, Williams D, D'Antonio N, Zhang Y, Rajagopalan A, Flietner E, Wilson K, Zhang X, Shinn P, Klumpp-Thomas C, McKnight C, Itkin Z, Chen L, Kazandijian D, Zhang J, Michalowski AM, Simmons JK, Keats J, Thomas CJ, Mock BA. Drug combinations identified by high-throughput screening promote cell cycle transition and upregulate Smad pathways in myeloma. Cancer Lett. 2023 Aug 1;568:216284. doi: 10.1016/j.canlet.2023.216284. Epub 2023 Jun 24. PMID: 37356470; PMCID: PMC10408729.
SEQUENCE No. (e.g., 1, 2, 3, etc.); […] (e.g., Cells, Incubation, Reagent, etc.); VALUE and DESCRIPTION.
1; Cells; 5 uL; white, solid bottom 1536-well Greiner assay plate.
2; Compounds; 23 nL; Kalypsis pin tool (Wako USA) equipped with a 1536-well pin head to transfer to the assay plates.
3; Incubation; 48 hours; 37C incubation.
4; Reagent;5uL; CellTiter Glo (Promega).
5; Detector; 425V; Luminescence; Viewlux PerkinElmer.
NOTES (numbers refer to Sequence numbers above)
1. The cell-based screening methods employed in this study were like those previously published. Briefly, the corresponding myeloma cell lines were screened in 1,536-well plates with 500 cells, 5-uL per well for inhibition of cell viability (assessed by measuring ATP levels with CellTiterGlo).
2. NCATS MIPE 4.0 library of approved and investigational drugs were added using the Kalypsis pin tool. Wells treated with DMSO only for 100% viability and media only wells for 0% viability were used as controls.
3. The assay plates were covered and incubated for 48 hours in a 37C, 5% CO2 incubator with controlled humidity.
4. After 48 hours, CellTilter-GloTM luminescent substrate mix (Promega) reagent was added to the assay plate and plates we incubated for 5 min at room temperature.
5. Signal was measured as median relative luminescence units on a ViewLux (PerkinElmer) multiplate reader.
[1] Heske CM, Davis MI, Baumgart JT, Wilson K, Gormally MV, Chen L, Zhang X, Ceribelli M, Duveau DY, Guha R, Ferrer M, Arnaldez FI, Ji J, Tran HL, Zhang Y, Mendoza A, Helman LJ, Thomas CJ. Matrix Screen Identifies Synergistic Combination of PARP Inhibitors and Nicotinamide Phosphoribosyltransferase (NAMPT) Inhibitors in Ewing Sarcoma. Clin Cancer Res. 2017 Dec 1;23(23):7301-7311. doi: 10.1158/1078-0432.CCR-17-1121. Epub 2017 Sep 12. PMID: 28899971; PMCID: PMC6636827.
Potency is the fitted concentration of half-maximal effect.

| Compound | Potency | viability (% of control) |
| --- | --- | --- |
| CC(C)[C@H](O)C(=O)N[C@@H](C)C(=O)N[C@@H]1C(=O)N(C)CCc2ccccc21 | inconclusive: 26.4 µM [cytotoxic, single point] |  |
| CCc1nc(-c2cccc(C)c2)c(-c2ccnc(NC(=O)c3ccccc3)c2)s1 | inconclusive: 20.9 µM [cytotoxic, partial curve] |  |
| CC(O)C1C(=O)N2C(C(=O)O)=C(SC3CNC(C(=O)N(C)C)C3)C(C)C12 (stereo not given) | inconclusive: 0.0074 µM [rising, full curve, poor fit] |  |
| O=[N+]([O-])c1cn2c(n1)OC[C@@H](OCc1ccc(OC(F)(F)F)cc1)C2 |  | inactive: 116% |
| CC[C@H](C)C(=O)O[C@H]1C[C@@H](C)C=C2C=C[C@H](C)[C@H](CC[C@@H]3C[C@@H](O)CC(=O)O3)[C@H]21 | inconclusive: 11.8 µM [cytotoxic, partial curve] |  |
| CC1(C)O[C@H]2CC(=O)OC[C@]23[C@H]2CC[C@@]4(C)[C@H](c5ccoc5)OC(=O)[C@H]5O[C@]54[C@]2(C)C(=O)C[C@@H]13 |  | inactive: 123% |
| COc1cc2c(Nc3ccc(NC(=O)c4ccccc4)cc3)ncnc2cc1OCCCN1CCOCC1 | inconclusive: 33.2 µM [cytotoxic, single point] |  |
| CCN(CC)CCOc1ccc(Nc2ncc3cc(-c4c(Cl)cccc4Cl)c(=O)n(C)c3n2)cc1 | active: 0.0209 µM |  |
| NC(N)=NC(=O)c1nc(Cl)c(N)nc1N | inconclusive: 11.8 µM [cytotoxic, single point] |  |
| CCOCC(O)COc1ccc(NC(=O)CC[S+](C)C)cc1 (stereo not given) |  | inactive: 91% |
| COc1cc(CNC(=O)CCCCC=CC(C)C)ccc1O |  | inactive: 89.4% |
| Nc1ncnc2c1c(-c1cccc(OCc3ccccc3)c1)cn2C1CC(CN2CCC2)C1 (stereo not given) | active: 1.18 µM |  |
| COc1cc2ncnc(Nc3ccc(F)c(Cl)c3)c2cc1NC(=O)C=CCN1CCCCC1 | active: 2.96 µM |  |
| Cc1cnc(-c2cc(N3CCN(C(=O)CCS(C)(=O)=O)CC3)ncc2Cl)c(C)c1 | inconclusive: 20.9 µM [cytotoxic, partial curve] |  |
| CCOC(=O)c1ccc(C#Cc2ccc3c(c2)C(C)(C)CCS3)nc1 | inconclusive: 37.2 µM [cytotoxic, single point] |  |
| CN(C)C(=O)COC(=O)Cc1ccc(OC(=O)c2ccc(N=C(N)N)cc2)cc1 | inconclusive: 5.26 µM [cytotoxic, partial curve, poor fit] |  |
| O=C(c1ccc(F)cc1)C1CCN(CCn2c(=O)[nH]c3ccccc3c2=O)CC1 | inconclusive: 0.469 µM [cytotoxic, partial curve, poor fit] |  |
| COc1cccc(N(C)C(=S)Oc2ccc3c(c2)CCCC3)n1 | inconclusive: 20.9 µM [cytotoxic, partial curve] |  |
| CC(C)(C)[C@H](NC(=O)c1ccc(N)c(Cl)c1)C(=O)N1CCC[C@@H]1C(=O)N[C@H](C#N)CC(=O)O | inconclusive: 0.0074 µM [rising, full curve, poor fit] |  |
| C[C@H]1COc2c(N3CCN(C)CC3)c(F)cc3c(=O)c(C(=O)O)cn1c23 |  | inactive: 113% |

| Compound | Potency | viability (% of control) |
| --- | --- | --- |
| O=C(O)c1cn(C2CC2)c2cc(N3CCNCC3)c(F)cc2c1=O | inconclusive: 0.0105 µM [rising, full curve, poor fit] |  |
| O=S(=O)(O)CCS | inconclusive: 0.0017 µM [rising, full curve, poor fit] |  |
| C#CCN(C)CC1=Cc2ccccc2Oc2ccccc21 | inconclusive: 26.4 µM [cytotoxic, single point] |  |
| NS(=O)(=O)c1cc2c(cc1Cl)NC(C(Cl)Cl)NS2(=O)=O (stereo not given) |  | inactive: 98.3% |
| CC[C@H](CC[C@@H](C)[C@H]1CC[C@H]2[C@@H]3CC=C4C[C@@H](O)CC[C@]4(C)[C@@H]3CC[C@]12C)C(C)C |  | inactive: 94.2% |
| COc1cccc(Nc2c(C(N)=O)cnc3c(C)cc(S(=O)(=O)c4cccc(C(=O)N(C)C)c4)cc23)c1 | inconclusive: 18.2 µM [cytotoxic, single point] |  |
| C[C@@H](NCc1cc2ccccc2[nH]1)c1cccc2ccccc12 | inconclusive: 0.001 µM |  |
| C[C@@H](Cc1cc2c(c(C(N)=O)c1)N(CCCO)CC2)NCCOc1ccccc1OCC(F)(F)F | inconclusive: 16.6 µM [cytotoxic, partial curve] |  |
| CC1=C(C(=O)O)N2C(=O)[C@@H](NC(=O)C(N)c3ccccc3)[C@H]2SC1 (stereo not given in full) |  | inactive: 91.5% |
| CC(=O)NC[C@H]1CN(c2ccc(N3CCOCC3)c(F)c2)C(=O)O1 | inconclusive: 1.32 µM [cytotoxic, full curve, poor fit] |  |
| C=C1C(=CC=C2CCCC3(C)[C@@H]([C@H](C)C=CC=CC(O)(CC)CC)CC[C@@H]23)C[C@@H](O)C[C@@H]1O (stereo not given in full) | inconclusive: 9.35 µM [cytotoxic, partial curve, poor fit] |  |
| C[C@H](CCC(=O)O)[C@H]1CC[C@H]2[C@H]3[C@@H](CC[C@]12C)[C@@]1(C)CC[C@@H](O)C[C@H]1C[C@@H]3O | inconclusive: 33.2 µM [cytotoxic, single point] |  |
| O=C1CCC[C@@H]2[C@H]3CCC[N+]4([O-])CCC[C@@H](CN12)[C@@H]34 (stereo not given in full) |  | inactive: 111% |
| Cc1cc(-c2nnc3n2CCCCC3)c(C)n1-c1ccccc1 |  | inactive: 94.6% |
| COc1ccc(-c2ccc3ncc4c(c3c2)n(-c2ccc(N3CCNCC3)c(C(F)(F)F)c2)c(=O)n4C)cn1 | inconclusive: 0.0017 µM [cytotoxic, partial curve, poor fit] |  |
| CCn1c(=O)c2c(nc(C=Cc3ccc(OC)c(OC)c3)n2C)n(CC)c1=O |  | inactive: 118% |
| NS(=O)(=O)c1cc2c(cc1Cl)NC=NS2(=O)=O |  | inactive: 94.6% |
| CN(C)CCc1c[nH]c2ccc(C[C@H]3COC(=O)N3)cc12 |  | inactive: 121% |
| CN(C)c1nc(Cc2ccc(NC(=O)c3ccc4ccccc4c3)cc2)nc(Cl)c1CC(=O)O |  | inactive: 100% |
| Cn1cnc2c(F)c(Nc3ccc(Br)cc3F)c(C(=O)NOCCO)cc21 | inconclusive: 18.7 µM [cytotoxic, partial curve, poor fit] |  |

In another format: entries from further up.
Compound | Potency | viability (% of control)
CC(C)[C@H](O)C(=O)N[C@@H](C)C(=O)N[C@@H]1C(=O)N(C)CCc2ccccc21 | inconclusive: 26.4 µM [cytotoxic, single point] | 
CCc1nc(-c2cccc(C)c2)c(-c2ccnc(NC(=O)c3ccccc3)c2)s1 | inconclusive: 20.9 µM [cytotoxic, partial curve] | 
CC(O)C1C(=O)N2C(C(=O)O)=C(SC3CNC(C(=O)N(C)C)C3)C(C)C12 (stereo not given) | inconclusive: 0.0074 µM [rising, full curve, poor fit] | 
